This data set addresses UHRF1 SRA (WT) (UniProt Q96T88). As to the kind of experiment: fluorescence polarization. The conditions noted are these: weaker than finger swap (~200 nM), Kd printed only in figure; FP: 25 mM HEPES pH 7.5, 100 mM NaCl, 0.05% NP-40, 10 nM FAM-DNA (temperature not stated); recombinant protein; residues 414-616; protein details: N-terminal His6-MBP (retained); label: 5' FAM on antisense strand (strand 2). Background: Polarisation of emitted light reports the rotation of a fluorescent probe.

The chains behind the UniProt entries cited, without tags or fusion partners. Residues count along the entry.
UniProt Q96T88, 414-616: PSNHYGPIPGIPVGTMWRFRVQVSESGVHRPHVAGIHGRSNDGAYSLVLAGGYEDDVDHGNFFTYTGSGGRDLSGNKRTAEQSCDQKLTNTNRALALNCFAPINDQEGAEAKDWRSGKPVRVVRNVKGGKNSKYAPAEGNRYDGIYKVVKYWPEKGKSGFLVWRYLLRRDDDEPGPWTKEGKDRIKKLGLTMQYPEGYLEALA

Construct, isoform or probe ends are uncertain for at least one entry. A weaker result is weaker than the reference pair of the same experiment. At least one verdict was read from the data and is not stated in words by the source.

On to CCATGCGCTGAC (double strand) [UnDNA], for which the binding result is “binds more weakly”.
